{"source": "paper PMC3538754", "binders": {"B1": {"name": "p120 catenin (protein, UniProt O60716 1-968)", "chain": "MDDSEVESTASILASVKEQEAQFEKLTRALEEERRHVSAQLERVRVSPQDANPLMANGTLTRRHQNGRFVGDADLERQKFSDLKLNGPQDHSHLLYSTIPRMQEPGQIVETYTEEDPEGAMSVVSVETSDDGTTRRTETTVKKVVKTVTTRTVQPVAMGPDGLPVDASSVSNNYIQTLGRDFRKNGNGGPGPYVGQAGTATLPRNFHYPPDGYSRHYEDGYPGGSDNYGSLSRVTRIEERYRPSMEGYRAPSRQDVYGPQPQVRVGGSSVDLHRFHPEPYGLEDDQRSMGYDDLDYGMMSDYGTARRTGTPSDPRRRLRSYEDMIGEEVPSDQYYWAPLAQHERGSLASLDSLRKGGPPPPNWRQPELPEVIAMLGFRLDAVKSNAAAYLQHLCYRNDKVKTDVRKLKGIPVLVGLLDHPKKEVHLGACGALKNISFGRDQDNKIAIKNCDGVPALVRLLRKARDMDLTEVITGTLWNLSSHDSIKMEIVDHALHALTDEVIIPHSGWEREPNEDCKPRHIEWESVLTNTAGCLRNVSSERSEARRKLRECDGLVDALIFIVQAEIGQKDSDSKLVENCVCLLRNLSYQVHREIPQAERYQEAAPNVANNTGPHAASCFGAKKGKDEWFSRGKKPIEDPANDTVDFPKRTSPARGYELLFQPEVVRIYISLLKESKTPAILEASAGAIQNLCAGRWTYGRYIRSALRQEKALSAIADLLTNEHERVVKAASGALRNLAVDARNKELIGKHAIPNLVKNLPGGQQNSSWNFSEDTVISILNTINEVIAENLEAAKKLRETQGIEKLVLINKSGNRSEKEVRAAALVLQTIWGYKELRKPLEKEGWKKSDFQVNLNNASRSQSSHSYDDSTLPLIDRNQKSDKKPDREEIQMSNMGSNTKSLDNNYSTPNERGDHNRTLDRSGDLGDMEPLKGTTPLMQDEGQESLEEELDVLVLDDEGGQVSYPSMQKI"}}, "molecular_target": "E-cadherin (human (endogenous in MCF7))", "assay": "co-IP; MCF7 cells (control; HRG-β1 16 h; HRG-β1 16 h then SB202190 for the indicated time) lysed in 10 mM Tris-HCl pH 7.5, 150 mM NaCl, 5 mM EDTA, 1 mM PMSF; protein A sepharose bound to antibodies, washed three times with lysis buffer; detected by Western blotting", "note": "Results are given in words; binding and its absence hold for the method and conditions named. In cells and extracts the contact can be indirect. Binding calls can cover weak binding; strength is not graded here."}
{"binder": "B1", "values": [{"measurement": "binding", "result": "binds"}]}
